Source: PubChem BioAssay AID1224830 (NIAID, 2016)
Screen: 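Host factors that control LPS-induced TNF expression in human macrophages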 (primary screen). Cells: human THP-1 monocytic leukaemia cells, TNF dual-luciferase reporter clone, PMA-differentiated to macrophage-like cells. Reagent: siRNA pool against human genes, 50 nM. Timing: LPS for 4 h, given about 3 days after siRNA transfection. Treatment: bacterial LPS (TLR4 ligand), 10 ng/ml. Read-out: 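TNF firefly reporter luminescence divided by renilla, normalised to the plate median, then turned into a robust z-score for each replicate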. Scale: TNF reporter robust z-score: higher = stronger TNF reporter response to LPS. Call rule: 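Each well counts as active if its z-score is over 2.8 or under -1.5; controls are left without a call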.
Here is a random part of about 18,000 reagents. In the full data, about 2,900 (16%) were called active. 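Calls are made per well; low scores hint the gene aids the LPS response, high scores that it dampens it.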 Repeated entries: four replicate wells of each siRNA pool. Reagent sequences are not shown.

For DEFB113 the deposit lists TNF reporter robust z-score -1.26; inactive. DEFB113 scored TNF reporter robust z-score -0.41; inactive. DEFB113 scored TNF reporter robust z-score -0.37; inactive. DEFB113 scored TNF reporter robust z-score -0.61; inactive. Silencing of DNAJA4 gave: TNF reporter robust z-score -1.71; active. After knock-down of DNAJA4, the record shows TNF reporter robust z-score -1.76; active.

Depletion of DNAJA4 gave: TNF reporter robust z-score -1.69; active. For DNAJA4, the values are TNF reporter robust z-score -1.37; inactive. After knock-down of RASGEF1C the results were TNF reporter robust z-score 0.16; inactive. Depletion of RASGEF1C gave: TNF reporter robust z-score 0.46; inactive. With knock-down of RASGEF1C the results were TNF reporter robust z-score -1.16; inactive. RASGEF1C gave TNF reporter robust z-score -0.31; inactive.

With knock-down of PCDHB12, the screen gave TNF reporter robust z-score -0.99; inactive. PCDHB12 gave TNF reporter robust z-score -0.44; inactive. PCDHB12 scored TNF reporter robust z-score -0.72; inactive. Against PCDHB12, the values are TNF reporter robust z-score -0.73; inactive. After knock-down of DNAJB14, the screen gave TNF reporter robust z-score -0.74; inactive. DNAJB14 gave TNF reporter robust z-score 0.47; inactive.

Silencing of DNAJB14 came out at: TNF reporter robust z-score -1.18; inactive. With knock-down of DNAJB14, the screen gave TNF reporter robust z-score 0.93; inactive.

Reformatted: entries from further up.
target,TNF reporter robust z-score,Call
PCDHB12,-0.99,inactive
PCDHB12,-0.44,inactive
